In paper doi:10.1101/2021.08.20.457118:
Results are given in words; binding and its absence hold for the method and conditions named. A result given as binding can be weak or reduced; the word gives no strength. Tags and fused reporters may be left off the sequences shown.

Biological target: T1, UFD-2 (tagless recombinant) (C. elegans) (UniProt Q09349)
T1 sequence: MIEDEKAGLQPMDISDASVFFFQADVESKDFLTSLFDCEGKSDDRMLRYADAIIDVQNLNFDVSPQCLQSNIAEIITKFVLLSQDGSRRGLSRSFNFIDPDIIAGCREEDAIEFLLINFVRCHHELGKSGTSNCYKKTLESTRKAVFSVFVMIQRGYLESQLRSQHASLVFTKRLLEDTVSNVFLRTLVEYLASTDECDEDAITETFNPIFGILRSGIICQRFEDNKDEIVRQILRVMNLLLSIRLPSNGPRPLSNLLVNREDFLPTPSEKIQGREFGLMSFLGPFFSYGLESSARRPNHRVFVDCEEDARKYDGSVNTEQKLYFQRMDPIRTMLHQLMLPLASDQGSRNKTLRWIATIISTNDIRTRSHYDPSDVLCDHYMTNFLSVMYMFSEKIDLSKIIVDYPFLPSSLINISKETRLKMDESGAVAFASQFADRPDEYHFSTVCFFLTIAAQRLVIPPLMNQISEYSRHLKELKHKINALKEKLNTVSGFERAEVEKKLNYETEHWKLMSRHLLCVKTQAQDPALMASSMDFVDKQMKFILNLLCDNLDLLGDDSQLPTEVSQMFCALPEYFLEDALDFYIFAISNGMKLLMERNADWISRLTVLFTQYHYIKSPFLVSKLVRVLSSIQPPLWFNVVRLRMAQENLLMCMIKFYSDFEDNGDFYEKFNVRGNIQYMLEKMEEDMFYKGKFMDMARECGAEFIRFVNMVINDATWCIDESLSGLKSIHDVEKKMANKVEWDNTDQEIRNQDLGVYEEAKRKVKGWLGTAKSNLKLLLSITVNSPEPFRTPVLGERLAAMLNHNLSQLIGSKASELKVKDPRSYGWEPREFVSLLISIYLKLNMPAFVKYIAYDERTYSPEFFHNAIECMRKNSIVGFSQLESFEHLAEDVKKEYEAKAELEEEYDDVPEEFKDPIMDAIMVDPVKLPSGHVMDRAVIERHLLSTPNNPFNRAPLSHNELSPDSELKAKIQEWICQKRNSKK
Assay: ELISA

binding: binds
Substance: CHN-1 (untagged recombinant) (C. elegans) (enzyme)
